The whole screen tested about 320,000 compounds, of which about 22,000 (6.9%) were called active. Inconclusive means that the source gave no clear call. Such entries were picked first, then a sample of the others. Calls follow the shape of the dose curve; as a rule, active = well fitted inhibition curve with a large enough effect; inconclusive = small, poorly fitted or top-dose-only effect, or another doubt; inactive = no such curve, though single readings can be large or run the other way. Potencies of inconclusive entries are doubtful fits and often do not repeat.
Test: Primary qHTS for delayed death inhibitors of the malarial parasite plastid, 96 hour incubation
Conditions: P. falciparum luciferase reporter growth; series mostly up to 28.7 µM; activity change, negative = inhibition: at the top concentration
Method in brief: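 96 h incubation, 37 C, 5% CO2, of luciferase-reporter P. falciparum-infected RBCs (2% hematocrit, 0.05% parasitemia final) with test compounds; endpoint luminescence.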
% is scaled to controls: 0 for no effect and ±100 for the full control effect; potency is read from the fitted curve at half-maximal effect.

SMILES	Potency	activity change, negative = inhibition
COc1ccc(N2CCC(CNC(=S)Nc3cc(C)cc(C)c3)C2)cc1 (configuration not stated)	inconclusive: 2.94 µM [inhibitor, full curve, poor fit]	
CCCCCn1c(CNC(=O)c2cccs2)nc2ccccc21	active: 0.586 µM	
S=C(NCCCCc1ccccc1)NCc1ccccc1	inconclusive: 13.1 µM [inhibitor, single point]	
CCOc1ccc(NC(=O)Nc2ccc(NC(C)=O)cc2)cc1		inactive: 37.5%
Cc1ccc(S(=O)(=O)NN2C(=O)c3ccccc3NC2c2ccccn2)cc1 (configuration not stated)	inconclusive: 11.7 µM [inhibitor, single point]	
O=Cc1cn(CC(O)CN2CCCCC2)c2ccccc12 (configuration not stated)	inconclusive: 16.5 µM [inhibitor, partial curve, poor fit]	
CCC(C)Nc1nc(-c2ccccn2)nc2ccccc12 (configuration not stated)	active: 0.928 µM	
COc1ccc(OC)c(NC(=O)Cn2c(C)nc3ccccc3c2=O)c1		inactive: 0.568%
CCN1CCCC1CNC(=O)C(=O)NCc1ccccc1 (configuration not stated)	inconclusive: 13.1 µM [inhibitor, single point]	
COc1ccc(C2NCCc3c2[nH]c2ccccc32)cc1CN1CCc2cc(OC)c(OC)cc2C1C (configuration not stated)	inconclusive: 1.47 µM [inhibitor, full curve, poor fit]	
COC(=O)C1=C(C)N(Cc2ccco2)C(=O)/C1=C\c1ccc([N+](=O)[O-])cc1		inactive: -33.9%
C=C1CCN([C@@H](C)C(=O)OCc2ccc(C)cc2)S(=O)(=O)c2ccccc21	inconclusive: 11.7 µM [inhibitor, single point]	
Cc1cc(/C=C(\C#N)C(=O)NCc2cccs2)c(C)n1-c1ccc([N+](=O)[O-])cc1	inconclusive: 13.1 µM [inhibitor, single point]	
Clc1ccc2nc(SCc3nnc(-c4ccccc4)o3)[nH]c2c1		inactive: 7.91%
O=C(O)C1CCN(Cc2ccccn2)CC1		inactive: 15.3%
Nc1ccccc1-c1nnc(-c2ccccc2N)n1N		inactive: 88.4%
CC(/C=N/NC(=O)c1nnn(-c2nonc2N)c1C)=C\c1ccccc1	inconclusive: 9.28 µM [inhibitor, single point]	
CCN(C(=O)CCN1C(=O)/C(=C/c2ccccc2)SC1=S)C1CCS(=O)(=O)C1 (configuration not stated)	active: 7.38 µM	
CC1CCN(C(=O)CSc2nnc(N)s2)CC1	inconclusive: 3.7 µM [inhibitor, single point]	
CC1CC(CCC(=O)NC(=S)Nc2ccc(S(N)(=O)=O)cc2)C(=O)O1 (configuration not stated)	inconclusive: 0.233 µM [inhibitor, full curve, poor fit]	
CC(=O)c1ccc(NC(=O)c2cnn3ccccc23)cc1	active: 10.4 µM	
COC(=O)[C@@H](NC(=O)N(C1CCCCC1)C1CCCCC1)C(C)C	active: 1.65 µM	
COc1ccc(C2=CC(c3ccc(OC)c(OC)c3)NC(=S)N2)cc1 (configuration not stated)	inconclusive: 1.17 µM [inhibitor, partial curve, poor fit]	
CC(C)(C)NC(=O)COC(=O)Cc1ccc(Cl)cc1	inconclusive: 20.8 µM [inhibitor, partial curve, poor fit]	

SMILES	Potency	activity change, negative = inhibition
CCOC(=O)C1=C(COC(=O)CSc2ccc(C)cc2)NC(=O)NC1C (configuration not stated)		inactive: -7.3%
O=C1C(Cl)=C(N2CCCCCC2)C(=O)N1c1ccc(Br)cc1	inconclusive: 10.4 µM [inhibitor, single point]	
CC(C)CN(CCCNC(=O)CN1C(=O)COc2ccc(S(=O)(=O)N3CCOCC3)cc21)CC(C)C	inconclusive: 18.5 µM [inhibitor, single point]	
Cc1oc(-c2ccccc2)cc1C(=O)Nc1ccccc1		inactive: 3.14%
CC1Oc2ccccc2N(CC(=O)NC2CCCC2)C1=O (configuration not stated)		inactive: 19%
O=C(Cc1ccc(Cl)cc1)Nc1ccccc1C(=O)N1CCCCC1		inactive: 331%
COC(=O)c1c(C)n(-c2ccc(C)cc2)c2ccc(O)cc12	active: 4.15 µM	
Cc1cccc(C)c1Nc1nnc(SCc2cc([N+](=O)[O-])cc3c2OCOC3)s1	inconclusive: 11.7 µM [inhibitor, single point]	
CCOc1cc2c(Cl)ncnc2c(OCC)c1OCC	inconclusive: 0.0029 µM [inhibitor, full curve, poor fit]	
COc1ccc(OC)c(NC(=O)c2ccccc2NC(=O)c2ccco2)c1		inactive: -6.15%
CCC(C(=O)c1ccccc1)N(C(=O)c1ccccc1Cl)N1C(=O)C2C3C=CC(C3)C2C1=O (configuration not stated)	active: 10.4 µM	
CN(C)c1ccc(NS(=O)(=O)c2cc3c4c(c2)CC(=O)N4CCC3)cc1	inconclusive: 5.86 µM [inhibitor, partial curve]	
COC(=O)NC(NC(=S)Nc1cccc(C)c1)C(Cl)(Cl)Cl (configuration not stated)		inactive: -22.1%
C/C(=N/OC(=O)C1CC1c1ccccc1)c1ccccc1 (configuration not stated)	inconclusive: 18.5 µM [inhibitor, single point]	
Cc1cc(C)cc(Oc2ccc(NC(=O)C3CC=CCC3C(=O)O)cc2)c1 (configuration not stated)	inconclusive: 1.85 µM [inhibitor, partial curve, poor fit]	
CC(OC(=O)c1nsc(Cl)c1Cl)C(=O)NCc1ccco1 (configuration not stated)	inconclusive: 11.7 µM [inhibitor, single point]	
Cc1cc(NC(=O)Cc2cc(F)cc(F)c2)no1		inactive: 41.9%
Clc1ccccc1C(c1ccccc1)(c1ccccc1)n1ccnc1	active: 1.44 µM	
CCc1ccc2[nH]c(=O)c(CN(Cc3ccco3)S(=O)(=O)c3ccc4c(c3)OCCO4)cc2c1	inconclusive: 0.415 µM [inhibitor, full curve, poor fit]	
COc1ccc(C(=O)/C=C/c2ccc(OC)c(COc3ccc(F)cc3)c2)cc1		inactive: 0%
COc1ccc(OC)c(/C=C/c2nc3ccccc3[nH]c2=O)c1		inactive: -2.2%
Cc1cccc2cc(C(c3nnnn3Cc3ccc4c(c3)OCO4)N3CCCC3)c(=O)[nH]c12 (configuration not stated)	inconclusive: 11.7 µM [inhibitor, partial curve, poor fit]	
Cc1cccc(Nc2nnc(-c3ccc(N4CCOCC4)c([N+](=O)[O-])c3)c3ccccc23)c1	inconclusive: 7.38 µM [inhibitor, partial curve, poor fit]	
O=C(NC(=S)Nc1cccc2c(O)cccc12)c1cccc(Br)c1	inconclusive: 18.5 µM [inhibitor, single point]	

In the list so far, these contain fluorine.
SMILES	Potency	activity change, negative = inhibition
Cc1cc(NC(=O)Cc2cc(F)cc(F)c2)no1		inactive: 41.9%
COc1ccc(C(=O)/C=C/c2ccc(OC)c(COc3ccc(F)cc3)c2)cc1		inactive: 0%

The listing continues.

SMILES	Potency	activity change, negative = inhibition
Cc1cccc(OCCSc2nc3ccccc3n2CC(=O)O)c1	inconclusive: 18.5 µM [inhibitor, single point]	
O=[N+]([O-])c1ccccc1S(=O)(=O)Nc1cccc(-c2ccc(N3CCOCC3)nn2)c1	inconclusive: 9.28 µM [inhibitor, partial curve]	
CCOc1ccccc1NC(=O)Nc1ccc(Br)cn1		inactive: 61.8%
COc1ccc(CCN2CC(C(=O)N(C)CCOc3ccccc3)CCC2=O)cc1 (configuration not stated)		inactive: 4.5%
O=C(Cn1c(N2CCN(c3ccccc3)CC2)nc2ccccc21)c1ccccc1	inconclusive: 6.57 µM [inhibitor, partial curve]	
CO/N=C1\CN(c2nc3c(cc2F)c(=O)c(C(=O)O)cn3C2CC2)CC1CN (configuration not stated)	active: 1.69 µM	
CCSc1nsc(NC(=O)Nc2ccccc2F)n1	inconclusive: 18.5 µM [inhibitor, single point]	
Cc1[nH]c2ccccc2c1C(=O)CSc1ccccn1	inconclusive: 9.28 µM [inhibitor, partial curve, poor fit]	
NNC(=O)c1ccc(NS(=O)(=O)c2ccc(Br)cc2)cc1		inactive: 30%
O=S(=O)(c1ccccc1)c1nc(-c2ccco2)oc1N1CCCCC1	inconclusive: 11.7 µM [inhibitor, partial curve]	
O=C(Nc1ccc(-c2cn3ccsc3n2)cc1)C1CCCC1		inactive: 13.9%
COc1ccc(-c2nnc(N3CCCCC3)c3ccccc23)cc1	inconclusive: 11.7 µM [inhibitor, partial curve]	
OCC1(Cc2ccccc2F)CCCN(CC2CCCCC2)C1 (configuration not stated)	inconclusive: 18.5 µM [inhibitor, single point]	
CC(C)c1ccc(NC(=O)CSc2ncccc2C(=O)Oc2cccc([N+](=O)[O-])c2)cc1	inconclusive: 10.4 µM [inhibitor, single point]	
COc1cc(O)cc2occ(-c3ccc(O)cc3)c(=O)c12	inconclusive: 10.4 µM [inhibitor, single point]	
CCCCN(c1nc2ccccc2nc1Cl)S(=O)(=O)c1ccc(C)cc1	inconclusive: 14.7 µM [inhibitor, partial curve, poor fit]	
Cc1cc(NS(=O)(=O)c2ccc(NC(=O)c3cc(-c4cccnc4)nc4ccc(Cl)cc34)cc2)no1		inactive: 25.7%
CCN(CC)S(=O)(=O)c1cccc(-c2n[nH]c(=S)n2/N=C/c2ccc(C(=O)OC)cc2)c1	inconclusive: 11.7 µM [inhibitor, single point]	
CC(C)CNC(=O)C(=O)Nc1ccc(N(C)C)cc1	inconclusive: 18.5 µM [inhibitor, single point]	
COc1ccc(CC(=O)Nc2cc(S(=O)(=O)N3CCCCC3)ccc2C)cc1	inconclusive: 18.5 µM [inhibitor, single point]	
COc1ccc(OC)c(/C=C/C(=O)OCC(=O)NCc2cccs2)c1	inconclusive: 11.7 µM [inhibitor, single point]	
COc1ccc2nc(NC(=O)Cn3cnc4c(=O)n(C)c(=O)n(C)c43)sc2c1	inconclusive: 11.7 µM [inhibitor, single point]	
COC(=O)CCC(=O)OC1(C)C(=O)C2=CN(CCCOC(C)C)C(c3ccc(OC)cc3)=CC2=C(Br)C1=O (configuration not stated)	active: 11.7 µM	
Cc1c(O)c(CN2CCCC2)cc2c3c(c(=O)oc12)CCC3	inconclusive: 18.5 µM [inhibitor, single point]	

— PubChem BioAssay AID504834 (National Center for Advancing Translational Sciences (NCATS), 2011)
